# Laboratory results published in the supplement of paper PMC12067093, “Discovery and optimisation of a covalent ligand for TRIM25 and its application to targeted protein ubiquitination” (Chemical Science, 2025).
# By UniProt entry, the sequences of proteins in these tests, tags left out. Where a name states a change or a piece, a line headed by the entry shows the natural chain unless it says otherwise.
# UniProt P16885: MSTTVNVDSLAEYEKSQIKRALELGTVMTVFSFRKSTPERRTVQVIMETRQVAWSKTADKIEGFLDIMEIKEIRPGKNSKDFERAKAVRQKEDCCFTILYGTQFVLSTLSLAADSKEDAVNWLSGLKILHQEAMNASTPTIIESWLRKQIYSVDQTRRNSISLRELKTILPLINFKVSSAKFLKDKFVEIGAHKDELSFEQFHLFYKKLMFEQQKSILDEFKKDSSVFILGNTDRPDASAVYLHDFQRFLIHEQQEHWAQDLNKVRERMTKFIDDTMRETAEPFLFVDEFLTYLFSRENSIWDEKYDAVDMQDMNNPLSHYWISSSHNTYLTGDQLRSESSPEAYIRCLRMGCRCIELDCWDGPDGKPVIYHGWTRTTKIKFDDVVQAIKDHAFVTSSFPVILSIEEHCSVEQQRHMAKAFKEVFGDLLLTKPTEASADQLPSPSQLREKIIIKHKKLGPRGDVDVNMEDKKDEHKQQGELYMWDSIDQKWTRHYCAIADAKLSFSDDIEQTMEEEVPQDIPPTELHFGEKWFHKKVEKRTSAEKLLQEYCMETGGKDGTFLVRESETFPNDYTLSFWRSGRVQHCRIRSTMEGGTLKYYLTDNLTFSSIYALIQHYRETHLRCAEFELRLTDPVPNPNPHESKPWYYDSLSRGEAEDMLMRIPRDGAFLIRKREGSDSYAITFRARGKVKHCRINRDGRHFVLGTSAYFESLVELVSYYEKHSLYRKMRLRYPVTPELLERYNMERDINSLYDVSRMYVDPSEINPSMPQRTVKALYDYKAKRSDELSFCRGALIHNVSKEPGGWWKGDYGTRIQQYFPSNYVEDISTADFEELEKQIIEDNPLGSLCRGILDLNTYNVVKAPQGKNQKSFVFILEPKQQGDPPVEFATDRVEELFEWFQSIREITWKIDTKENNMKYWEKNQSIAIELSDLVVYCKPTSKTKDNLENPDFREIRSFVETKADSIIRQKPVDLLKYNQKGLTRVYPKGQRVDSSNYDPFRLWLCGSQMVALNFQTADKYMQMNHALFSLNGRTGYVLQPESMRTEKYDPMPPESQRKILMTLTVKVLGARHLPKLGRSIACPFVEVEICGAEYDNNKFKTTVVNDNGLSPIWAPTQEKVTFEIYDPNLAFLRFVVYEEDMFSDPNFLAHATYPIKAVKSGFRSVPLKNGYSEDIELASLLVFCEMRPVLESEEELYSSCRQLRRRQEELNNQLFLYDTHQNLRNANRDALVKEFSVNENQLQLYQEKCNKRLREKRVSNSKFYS
# UniProt P19174: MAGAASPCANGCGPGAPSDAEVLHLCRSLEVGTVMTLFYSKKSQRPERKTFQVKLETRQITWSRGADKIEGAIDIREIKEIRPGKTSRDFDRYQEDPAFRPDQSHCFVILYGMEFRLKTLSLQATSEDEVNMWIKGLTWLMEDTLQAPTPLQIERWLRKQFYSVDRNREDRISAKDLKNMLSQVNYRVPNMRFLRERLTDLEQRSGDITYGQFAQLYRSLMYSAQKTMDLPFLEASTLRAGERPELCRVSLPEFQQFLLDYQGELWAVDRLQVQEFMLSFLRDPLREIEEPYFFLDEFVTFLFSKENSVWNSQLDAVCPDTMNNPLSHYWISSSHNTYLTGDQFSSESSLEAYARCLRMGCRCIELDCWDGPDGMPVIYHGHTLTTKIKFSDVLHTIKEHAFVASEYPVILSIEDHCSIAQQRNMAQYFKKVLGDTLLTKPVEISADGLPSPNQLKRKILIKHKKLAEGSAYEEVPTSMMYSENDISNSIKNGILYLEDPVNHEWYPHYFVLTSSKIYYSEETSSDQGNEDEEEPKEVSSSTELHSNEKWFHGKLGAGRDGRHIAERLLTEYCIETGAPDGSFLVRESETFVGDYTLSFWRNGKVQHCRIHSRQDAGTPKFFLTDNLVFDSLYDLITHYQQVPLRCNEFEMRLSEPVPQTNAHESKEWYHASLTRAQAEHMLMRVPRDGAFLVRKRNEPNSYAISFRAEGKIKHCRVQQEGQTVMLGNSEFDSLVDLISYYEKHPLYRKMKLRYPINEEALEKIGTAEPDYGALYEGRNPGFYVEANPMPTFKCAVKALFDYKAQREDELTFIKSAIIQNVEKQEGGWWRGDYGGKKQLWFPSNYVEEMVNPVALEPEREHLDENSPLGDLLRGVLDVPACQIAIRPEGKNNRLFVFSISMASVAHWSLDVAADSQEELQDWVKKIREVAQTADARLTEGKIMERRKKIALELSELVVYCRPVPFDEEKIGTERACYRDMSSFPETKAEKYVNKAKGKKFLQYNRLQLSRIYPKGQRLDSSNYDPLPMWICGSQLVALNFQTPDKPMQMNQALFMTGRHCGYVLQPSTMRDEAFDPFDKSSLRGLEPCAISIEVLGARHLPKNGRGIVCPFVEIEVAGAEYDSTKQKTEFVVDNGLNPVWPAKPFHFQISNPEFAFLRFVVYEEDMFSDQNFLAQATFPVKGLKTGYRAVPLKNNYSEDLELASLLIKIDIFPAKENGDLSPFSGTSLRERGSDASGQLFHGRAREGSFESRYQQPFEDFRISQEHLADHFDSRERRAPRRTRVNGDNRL
# UniProt O60331: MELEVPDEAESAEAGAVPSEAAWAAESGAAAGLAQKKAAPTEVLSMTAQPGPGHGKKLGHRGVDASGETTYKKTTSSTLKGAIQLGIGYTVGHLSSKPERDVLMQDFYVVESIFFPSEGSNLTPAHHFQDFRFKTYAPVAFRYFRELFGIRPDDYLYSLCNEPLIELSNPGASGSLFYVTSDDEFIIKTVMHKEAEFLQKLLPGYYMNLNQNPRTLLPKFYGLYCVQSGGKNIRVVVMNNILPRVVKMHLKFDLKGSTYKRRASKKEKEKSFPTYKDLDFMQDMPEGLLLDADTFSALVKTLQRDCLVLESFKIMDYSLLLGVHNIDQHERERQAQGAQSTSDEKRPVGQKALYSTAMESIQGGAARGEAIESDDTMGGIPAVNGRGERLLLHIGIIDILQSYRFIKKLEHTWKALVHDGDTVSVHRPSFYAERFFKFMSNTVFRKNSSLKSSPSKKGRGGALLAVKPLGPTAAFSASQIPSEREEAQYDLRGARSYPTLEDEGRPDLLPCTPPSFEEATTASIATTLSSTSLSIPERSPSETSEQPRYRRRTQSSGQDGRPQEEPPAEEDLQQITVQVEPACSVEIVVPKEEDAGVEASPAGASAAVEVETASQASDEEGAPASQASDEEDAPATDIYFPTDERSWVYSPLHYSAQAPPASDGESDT
# UniProt O15031: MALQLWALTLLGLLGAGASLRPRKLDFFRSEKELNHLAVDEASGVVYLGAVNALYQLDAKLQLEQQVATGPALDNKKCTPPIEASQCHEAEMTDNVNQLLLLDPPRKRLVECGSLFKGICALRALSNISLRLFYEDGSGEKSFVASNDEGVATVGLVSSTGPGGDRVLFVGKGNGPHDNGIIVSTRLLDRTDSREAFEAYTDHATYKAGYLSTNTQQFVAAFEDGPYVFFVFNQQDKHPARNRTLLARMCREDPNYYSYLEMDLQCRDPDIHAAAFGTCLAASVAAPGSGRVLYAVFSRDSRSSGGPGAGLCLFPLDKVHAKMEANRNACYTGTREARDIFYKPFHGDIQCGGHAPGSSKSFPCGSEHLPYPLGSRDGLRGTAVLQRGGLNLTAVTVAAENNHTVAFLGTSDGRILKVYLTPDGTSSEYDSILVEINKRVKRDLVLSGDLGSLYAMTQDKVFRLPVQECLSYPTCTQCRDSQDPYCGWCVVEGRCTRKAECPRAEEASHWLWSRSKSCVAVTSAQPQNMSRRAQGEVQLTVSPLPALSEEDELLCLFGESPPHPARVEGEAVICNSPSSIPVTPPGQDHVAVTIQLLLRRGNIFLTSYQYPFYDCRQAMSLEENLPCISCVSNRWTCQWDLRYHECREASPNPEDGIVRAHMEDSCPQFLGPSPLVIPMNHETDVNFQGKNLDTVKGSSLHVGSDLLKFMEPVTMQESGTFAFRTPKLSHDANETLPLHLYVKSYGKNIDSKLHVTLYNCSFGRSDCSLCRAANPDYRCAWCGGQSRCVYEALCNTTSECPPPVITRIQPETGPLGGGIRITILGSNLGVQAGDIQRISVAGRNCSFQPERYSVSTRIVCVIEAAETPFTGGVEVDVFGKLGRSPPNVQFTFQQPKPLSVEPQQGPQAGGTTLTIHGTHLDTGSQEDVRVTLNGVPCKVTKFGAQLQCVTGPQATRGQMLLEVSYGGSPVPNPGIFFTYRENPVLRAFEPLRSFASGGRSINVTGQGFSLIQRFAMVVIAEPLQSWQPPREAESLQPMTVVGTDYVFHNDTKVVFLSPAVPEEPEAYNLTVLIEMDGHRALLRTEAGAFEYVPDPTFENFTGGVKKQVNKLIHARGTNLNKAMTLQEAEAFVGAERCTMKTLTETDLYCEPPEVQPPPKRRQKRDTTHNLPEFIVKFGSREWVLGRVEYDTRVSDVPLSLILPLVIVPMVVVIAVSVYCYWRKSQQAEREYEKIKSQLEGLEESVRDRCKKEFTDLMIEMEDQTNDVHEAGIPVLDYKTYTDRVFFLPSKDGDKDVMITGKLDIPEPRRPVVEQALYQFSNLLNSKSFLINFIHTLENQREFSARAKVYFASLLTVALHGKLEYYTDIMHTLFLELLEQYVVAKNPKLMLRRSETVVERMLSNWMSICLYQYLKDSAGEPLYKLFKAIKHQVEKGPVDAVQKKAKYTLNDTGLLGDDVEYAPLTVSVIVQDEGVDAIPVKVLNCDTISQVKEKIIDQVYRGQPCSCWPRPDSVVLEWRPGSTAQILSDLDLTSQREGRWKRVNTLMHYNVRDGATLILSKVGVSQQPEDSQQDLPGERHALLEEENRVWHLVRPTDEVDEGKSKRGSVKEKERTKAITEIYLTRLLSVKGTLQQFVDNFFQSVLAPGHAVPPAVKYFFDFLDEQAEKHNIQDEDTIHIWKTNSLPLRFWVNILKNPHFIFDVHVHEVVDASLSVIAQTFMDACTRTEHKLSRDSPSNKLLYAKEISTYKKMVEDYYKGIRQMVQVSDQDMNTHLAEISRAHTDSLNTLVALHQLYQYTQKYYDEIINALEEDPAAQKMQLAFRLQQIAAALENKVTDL
# UniProt P48739: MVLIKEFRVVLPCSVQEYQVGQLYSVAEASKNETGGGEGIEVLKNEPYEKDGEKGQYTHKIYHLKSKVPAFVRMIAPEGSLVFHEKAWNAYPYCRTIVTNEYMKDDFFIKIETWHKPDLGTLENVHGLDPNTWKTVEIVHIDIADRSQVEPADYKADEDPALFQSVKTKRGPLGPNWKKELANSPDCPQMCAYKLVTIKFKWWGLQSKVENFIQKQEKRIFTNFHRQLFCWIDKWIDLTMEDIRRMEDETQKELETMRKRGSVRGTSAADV
# UniProt Q9UPR0: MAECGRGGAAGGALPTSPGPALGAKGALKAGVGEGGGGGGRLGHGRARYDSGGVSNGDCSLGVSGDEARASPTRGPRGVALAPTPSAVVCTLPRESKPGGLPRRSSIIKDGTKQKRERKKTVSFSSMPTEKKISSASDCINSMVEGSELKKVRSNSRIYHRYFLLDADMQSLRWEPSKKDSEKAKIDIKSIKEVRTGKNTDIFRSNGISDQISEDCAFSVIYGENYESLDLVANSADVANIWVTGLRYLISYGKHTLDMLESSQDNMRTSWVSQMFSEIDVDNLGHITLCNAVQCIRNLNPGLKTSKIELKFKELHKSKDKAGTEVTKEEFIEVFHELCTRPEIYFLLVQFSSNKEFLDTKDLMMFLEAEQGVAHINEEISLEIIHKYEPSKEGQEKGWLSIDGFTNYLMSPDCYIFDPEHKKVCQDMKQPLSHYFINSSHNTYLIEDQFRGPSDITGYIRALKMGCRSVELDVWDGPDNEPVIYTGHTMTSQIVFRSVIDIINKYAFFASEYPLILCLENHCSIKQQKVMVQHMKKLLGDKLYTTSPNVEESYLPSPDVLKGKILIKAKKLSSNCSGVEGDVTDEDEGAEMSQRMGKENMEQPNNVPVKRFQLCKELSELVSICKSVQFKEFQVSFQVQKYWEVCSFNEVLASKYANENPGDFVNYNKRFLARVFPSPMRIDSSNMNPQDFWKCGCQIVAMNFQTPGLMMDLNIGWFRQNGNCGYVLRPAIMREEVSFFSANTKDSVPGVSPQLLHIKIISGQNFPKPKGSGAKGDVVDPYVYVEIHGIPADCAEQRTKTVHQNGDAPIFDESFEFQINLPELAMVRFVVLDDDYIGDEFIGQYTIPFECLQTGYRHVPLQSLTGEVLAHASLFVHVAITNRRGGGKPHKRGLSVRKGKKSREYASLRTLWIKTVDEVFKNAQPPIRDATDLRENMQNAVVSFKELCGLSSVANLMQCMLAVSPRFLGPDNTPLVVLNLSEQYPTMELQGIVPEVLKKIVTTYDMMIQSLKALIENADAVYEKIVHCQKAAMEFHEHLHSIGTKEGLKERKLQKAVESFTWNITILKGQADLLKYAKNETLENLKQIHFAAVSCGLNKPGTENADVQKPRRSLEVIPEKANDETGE
# The list shows a part of the results.
# Compound: Cc1cc(ccc1-c1ccccc1)C(=O)N1CCCN(CC1)C(=O)CCl [compound 10]
# Experiment: probe-labelled cysteine peptide fold change vs DMSO (competition) (log2 fold change); higher = less target engagement (more negative = stronger competition)
# Settings: THP-1, incubation time: 4 h
# 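Also: competitive profiling in live THP-1 cells: cysteine peptides tagged with an iodoacetamide desthiobiotin (IA-DTB) probe, intensity after compound treatment relative to DMSO-treated cells.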
Target,probe-labelled cysteine peptide fold change (10 µM),probe-labelled cysteine peptide fold change (50 µM)
PLCG2_P16885_624_CAEFELR (UniProt P16885),-0.099,-0.585
PLOD3_O60568_379_DMAMDLCR (UniProt O60568),0.408,-0.161
PNO1_Q9NRX1_64_RPVFPPLCGDGLLSGKEETR (UniProt Q9NRX1),-0.393,-0.796
PLCG1_P19174_1088_GLEPCAISIEVLGAR (UniProt P19174),0.115,0.2
PIR_O00625_79_GFETVSYLLEGGSMAHEDFCGHTGK (UniProt O00625),0.0123,-0.175
PKN1_Q16512_442_GLCALK (UniProt Q16512),0.0772,0.0488
PIP5K1C_O60331_306_DCLVLESFK (UniProt O60331),-0.116,-0.134
PIP4K2C_Q8TBX8_176_CHGNTLLPQFLGMYR (UniProt Q8TBX8),-0.0542,-0.0681
PKM_P14618_49_NTGIICTIGPASR (UniProt P14618),0.0959,-0.189
PITPNM1_O00562_889_ERPQLAECEEPSIYSPAFPR (UniProt O00562),-0.0268,0.0522
PIK3R4_Q99570_1011_VSDEHSLFATCSNDGTVK (UniProt Q99570),0.159,0.183
PIP5K1C_O60331_225_FYGLYCVQSGGK (UniProt O60331),-0.105,0.32
PNKP_Q96T60_437_YVQCAR (UniProt Q96T60),0.0801,-0.0414
PIK3R2_O00459_396_DGHYGFSEPLTFCSVVDLINHYR (UniProt O00459),0.268,0.124
PMVK_Q15126_38_LGADVCAVLR (UniProt Q15126),-0.0805,0.0155
PLXNB2_O15031_937_VTLNGVPCK (UniProt O15031),-0.151,0.176

Target,probe-labelled cysteine peptide fold change (10 µM),probe-labelled cysteine peptide fold change (50 µM)
PLEKHA2_Q9HB19_81_TPFCFVINALSQR (UniProt Q9HB19),0.0526,0.0817
PLCG2_P16885_1090_SIACPFVEVEICGAEYDNNK (UniProt P16885),-0.173,-0.187
PLAA_Q9Y263_278_LPAQSIWCCCVLDNGDIVVGASDGIIR (UniProt Q9Y263),0.0366,0.0256
PLEKHG4_Q58EX7_917_HGNDLLAMDAIQGCDVNLK (UniProt Q58EX7),-0.0848,-0.216
PITPNB_P48739_94_AWNAYPYCR (UniProt P48739),0.0131,0.0528
POC5_Q8NA72_360_GVCALNLEAMTIFQNR (UniProt Q8NA72),-0.35,-0.269
PLEC_Q15149_4254_CITDPQTGLCLLPLK (UniProt Q15149),0.675,0.506
PLCG1_P19174_417_EHAFVASEYPVILSIEDHCSIAQQR (UniProt P19174),-0.274,-0.19
PLEC_Q15149_3493_TLLQGSGCLAGIYLEDTK (UniProt Q15149),0.242,0.398
PMS1_P54277_457_TCFISSVK (UniProt P54277),-0.325,-0.384
PML_P29590_129_QIVDAQAVCTR (UniProt P29590),-0.0117,-0.156
PLCL2_Q9UPR0_414_GWLSIDGFTNYLMSPDCYIFDPEHKK (UniProt Q9UPR0),0.11,-0.0646
PLD3_Q8IV08_487_SQLEAIFLRDWDSPYSHDLDTSADSVGNACR (UniProt Q8IV08),-0.352,-0.521
PLXNB2_O15031_770_SDCSLCR (UniProt O15031),0.0427,0.0553
PKM_P14618_31_SKPHSEAGTAFIQTQQLHAAMADTFLEHMCR (UniProt P14618),0.0631,-0.0423
PMPCA_Q10713_142_HGGICDCQTSR (UniProt Q10713),0.179,0.242

# Look-ups from above.
# PLCL2_Q9UPR0_414_GWLSIDGFTNYLMSPDCYIFDPEHKK (UniProt Q9UPR0) | probe-labelled cysteine peptide fold change (50 µM): -0.0646
# PLEKHA2_Q9HB19_81_TPFCFVINALSQR (UniProt Q9HB19) | probe-labelled cysteine peptide fold change (50 µM): 0.0817
